Results are given in words; binding and its absence hold for the method and conditions named. In cells and extracts the contact can be indirect. Some results given as binding are weak or reduced against the parent protein; the word gives no strength.
Target: NcaA-3×HA (Aspergillus fumigatus) (UniProt Q4WN10)
Assay: co-IP; native extracts of hspA-atrR-TAP strains with or without ncaA-3×HA; immunoprecipitation with anti-HA monoclonal antibody and protein G Dynabeads at 4°C, washes W250 and W150; Western blot with anti-AtrR and anti-HA

By UniProt entry, the sequences of proteins in these tests, tags left out.
UniProt Q4WN10: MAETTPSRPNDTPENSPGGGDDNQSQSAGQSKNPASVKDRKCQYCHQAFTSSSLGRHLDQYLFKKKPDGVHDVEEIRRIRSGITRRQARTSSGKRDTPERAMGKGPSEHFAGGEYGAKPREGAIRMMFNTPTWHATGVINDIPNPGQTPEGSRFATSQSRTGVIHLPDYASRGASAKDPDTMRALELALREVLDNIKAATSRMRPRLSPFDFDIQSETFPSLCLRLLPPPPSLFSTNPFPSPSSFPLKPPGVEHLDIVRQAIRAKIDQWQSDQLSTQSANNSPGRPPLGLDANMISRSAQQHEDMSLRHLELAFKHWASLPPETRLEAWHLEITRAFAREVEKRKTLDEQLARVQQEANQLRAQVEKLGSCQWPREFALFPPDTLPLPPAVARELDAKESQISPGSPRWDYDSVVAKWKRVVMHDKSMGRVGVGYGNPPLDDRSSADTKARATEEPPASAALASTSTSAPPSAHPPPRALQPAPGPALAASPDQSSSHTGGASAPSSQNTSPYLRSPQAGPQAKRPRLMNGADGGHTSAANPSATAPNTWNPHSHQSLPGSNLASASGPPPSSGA
UniProt Q4WI89: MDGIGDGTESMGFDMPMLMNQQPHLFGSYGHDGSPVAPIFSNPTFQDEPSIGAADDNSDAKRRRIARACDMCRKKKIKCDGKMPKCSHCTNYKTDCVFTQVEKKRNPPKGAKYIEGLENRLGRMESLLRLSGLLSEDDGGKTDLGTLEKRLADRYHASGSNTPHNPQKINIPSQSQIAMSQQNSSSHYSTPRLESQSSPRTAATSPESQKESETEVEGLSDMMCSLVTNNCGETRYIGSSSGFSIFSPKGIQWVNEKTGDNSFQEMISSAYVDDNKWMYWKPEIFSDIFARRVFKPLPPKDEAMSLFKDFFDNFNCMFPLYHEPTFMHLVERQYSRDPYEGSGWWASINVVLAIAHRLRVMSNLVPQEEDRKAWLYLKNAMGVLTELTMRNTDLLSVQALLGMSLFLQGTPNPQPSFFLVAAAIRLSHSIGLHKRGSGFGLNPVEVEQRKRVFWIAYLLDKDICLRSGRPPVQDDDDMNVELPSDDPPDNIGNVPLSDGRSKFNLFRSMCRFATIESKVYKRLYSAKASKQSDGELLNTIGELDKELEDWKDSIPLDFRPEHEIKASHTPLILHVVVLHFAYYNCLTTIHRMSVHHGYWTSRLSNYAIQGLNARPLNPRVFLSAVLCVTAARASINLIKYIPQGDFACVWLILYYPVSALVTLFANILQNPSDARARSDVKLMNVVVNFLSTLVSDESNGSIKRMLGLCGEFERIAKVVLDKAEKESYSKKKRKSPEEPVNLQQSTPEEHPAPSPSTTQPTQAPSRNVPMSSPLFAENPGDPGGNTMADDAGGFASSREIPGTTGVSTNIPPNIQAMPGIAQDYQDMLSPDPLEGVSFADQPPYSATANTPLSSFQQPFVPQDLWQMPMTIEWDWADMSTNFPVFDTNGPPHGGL

AtrR-TAP fusion protein (full-length AtrR fused at its C terminus to the tandem affinity purification moiety) (from UniProt Q4WI89 1-895)
binding: binds

Reference: publication PMC9769526
